Source: PubChem BioAssay AID488840 (Broad Institute, 2010)
About 45 (3%) of roughly 1,400 compounds were called active.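 The calls were made as follows: active = half-maximal dose of signal decrease from fit no higher than ten times the top valid tested dose; inconclusive = fit invalid, or curve flat with 30 to 70% inhibition; inactive = the rest.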 Some of the results follow. Entries with a potency or affinity are not part of this list.

Sequences of proteins named here, by UniProt entry; tags and fusion partners are left off. A change or cut given only in a name is not applied to a line headed by its entry.
UniProt O75164: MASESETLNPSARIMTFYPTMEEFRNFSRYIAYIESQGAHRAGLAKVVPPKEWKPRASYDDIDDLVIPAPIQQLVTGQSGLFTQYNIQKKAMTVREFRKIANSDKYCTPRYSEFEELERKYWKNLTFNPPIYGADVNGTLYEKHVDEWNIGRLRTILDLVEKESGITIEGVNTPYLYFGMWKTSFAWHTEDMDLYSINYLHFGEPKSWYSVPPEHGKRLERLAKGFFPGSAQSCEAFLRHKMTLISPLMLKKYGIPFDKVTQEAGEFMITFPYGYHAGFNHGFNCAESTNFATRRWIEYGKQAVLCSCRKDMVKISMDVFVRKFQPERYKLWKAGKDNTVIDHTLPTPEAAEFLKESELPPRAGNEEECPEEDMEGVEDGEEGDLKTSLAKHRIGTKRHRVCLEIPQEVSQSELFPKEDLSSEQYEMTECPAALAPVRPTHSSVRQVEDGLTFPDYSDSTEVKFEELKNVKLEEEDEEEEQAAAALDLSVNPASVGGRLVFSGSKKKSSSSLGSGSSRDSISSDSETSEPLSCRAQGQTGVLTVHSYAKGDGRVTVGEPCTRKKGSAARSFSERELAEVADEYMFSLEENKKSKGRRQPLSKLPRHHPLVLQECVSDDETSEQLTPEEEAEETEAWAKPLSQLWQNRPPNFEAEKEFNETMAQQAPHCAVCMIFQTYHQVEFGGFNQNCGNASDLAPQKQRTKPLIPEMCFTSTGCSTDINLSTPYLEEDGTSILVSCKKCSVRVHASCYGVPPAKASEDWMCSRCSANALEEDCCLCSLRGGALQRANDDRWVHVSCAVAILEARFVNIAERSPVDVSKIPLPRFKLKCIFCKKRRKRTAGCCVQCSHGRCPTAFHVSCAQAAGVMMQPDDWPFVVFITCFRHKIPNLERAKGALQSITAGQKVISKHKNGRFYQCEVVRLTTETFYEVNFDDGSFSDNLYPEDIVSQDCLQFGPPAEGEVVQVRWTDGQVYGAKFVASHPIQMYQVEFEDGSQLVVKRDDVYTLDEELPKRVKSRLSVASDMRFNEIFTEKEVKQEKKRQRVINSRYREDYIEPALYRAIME

molecular target: Lysine-specific demethylase 4A (Homo sapiens) (UniProt O75164); test: JMJD2A histone demethylase inhibitors, dose response, selectivity assay for GASC-1 inhibitor project, biochemical, DELFIA europium, cherry-picked samples (AID 488840); conditions: GST-JMJD2A(1-420) H3K9me3 demethylation; at 6 µM (top of the series) unless noted;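 also: europium signal reports the dimethyl H3K9 product detected by antibody so inhibitors lower it; 0% = median of neutral control wells and -100% = median of positive control wells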

Activity change, negative = inhibition, inactive:
Cc1cccc2c1-c1sc(C(=O)Nc3cccc([N+](=O)[O-])c3C)cc1CO2 -0.619%
Cc1ccc(C(=O)NCCCCNC(=O)c2ccc(C)o2)o1 -5.72%
O=C(c1cccc(-n2cccc2)c1)N1CCN(S(=O)(=O)c2c(F)cccc2F)CC1 5.19%
COc1ccc(NC(=O)Nc2c[nH]c(=O)[nH]c2=O)cc1OC -16.7%
CC(=O)N=c1sccn1CC(=O)c1ccc([N+](=O)[O-])cc1 -13.9%
CCOC(=O)C1CCN(S(=O)(=O)c2cccc(-c3cn4cc(Cl)ccc4n3)c2)CC1 0.705%
Cn1c(=O)[nH]c(=O)c2c1nc(N1CCc3ccccc3C1)n2CCSc1nc2ccccc2s1 -0.272%
C=CCOc1ccc(C(=O)NC2CCCCC2)cc1 -3.43%
C[C@H](CO)N1C[C@H](C)[C@@H](CN(C)Cc2ccncc2)Oc2c(NC(=O)Cc3ccccc3)cccc2C1=O 5.08%
CC#CCOC(=O)c1c(C)nc2sc3c(c2c1N)CCC(O)C3 (stereo not drawn) -2.42%
C[C@@]12C(=O)Nc3cc(F)c(F)cc3C(=O)N1[C@H]1c3cc(Cl)ccc3OC[C@@H]1[C@@H]2c1ccccc1 -3.04%
CCCCn1c(=O)[nH]c(=O)c2c1nc(-c1cc(Cl)c(OC)c(OC)c1)n2C 1.79%
CCC(CC)NC(=O)CSc1nnc(-c2ccc(OC)cc2)n1C(C)C -3.51%
CC(=O)N(C)C1=C(N2CCOCC2)C(=O)c2ccccc2C1=O -1.83%
Cn1c(=O)c2c(nc(NC3CCCCC3)n2Cc2ccccc2)n(C)c1=O -1.32%
COc1ccc(CC(=O)Nc2ccc(/C(C)=N/NC(=O)c3cccc([N+](=O)[O-])c3)cc2)cc1 3.57%
COc1cccc(/C=N/NC(=O)CNC(=O)c2cccs2)c1O -0.374%
O=[N+]([O-])c1ccccc1S(=O)(=O)N1CCN(Cc2ccc3c(c2)OCO3)CC1 -0.819%
O=C(Cc1sc(-c2ccccc2)nc1-c1ccccc1)Nc1ccccc1 4.26%
O=C(CSc1nnc(CNC(=O)c2cccs2)o1)c1ccccc1 2.01%
CCOc1cccc(C2C(C(=O)c3ccco3)=C(O)C(=O)N2Cc2ccncc2)c1 (stereo not drawn) -0.0442%
CSc1nc(N2CCN(C)CC2)c2c(c1C#N)CC(C)(C)OC2 -1.64%
Cc1ccc(NC2=NCC(=O)N2Cc2ccc3c(c2)OCO3)c(C)c1 -1.15%
CC[C@@H]1CCCCc2ccccc2[C@@H](C(=O)C[C@@H](O)CC(C)=O)OC1=O -1.15%
Fc1ccc(-c2csc(Nc3ccccn3)n2)cc1 -5.34%
O=c1c(O)cccc2cc(O)c(O)c(O)c12 -19.6%
CCCC(CCC)C(=O)Nc1cccc(-c2cn3c(n2)SCC3)c1 4.52%
COc1cccc(NC(=O)N2CCN(c3cccc(C)c3)C(C)C2)c1 (stereo not drawn) 0.171%
CCCn1nnnc1SCC(=O)NCc1ccc(OC)cc1 -0.185%
C/C(=N\NC(=O)c1ccncc1)c1ccc(N(C)C)cc1 -1.56%
COC(=O)CSC1=C(C#N)C(c2ccsc2)CC(=O)N1 (stereo not drawn) 0.445%
COc1ccccc1N1CCN(c2nc3c(C)cccn3c(=O)c2C=O)CC1 -7.79% [at 0.195 µM]
CNCCNC[C@H](Cc1cccc2ccccc12)NCCc1ccccc1 3.68%
CSc1nc(N)nc2c1ncn2CC(=O)NCCNc1ccc([N+](=O)[O-])cn1 -0.915%
Cc1ccc(S(=O)(=O)Nc2ccc3c(c2)C(=O)N([C@H](C)CO)C[C@H](C)[C@@H](CN(C)Cc2ccccc2)O3)cc1 4.3%
COc1ccc(S(=O)(=O)Nc2ccc3c(c2)C(=O)N([C@H](C)CO)C[C@H](C)[C@@H](CN(C)S(=O)(=O)c2c(C)noc2C)O3)cc1 6.71%
Cc1nn(C)c(N)c1C(O)(c1nccn1C)C(F)(F)F (stereo not drawn) 7.95%
CC(C)CC1c2[nH]c3ccccc3c2CCN1C(=O)c1cnccn1 (stereo not drawn) -3.88%
CNC(=O)C1=NCCCc2cc(OC)c(OC)cc21 2.44%
Cc1cc(C)nc(NC(N)=NC(C)c2ccccc2)n1 (stereo not drawn) 3.44%
C[C@H]1CN([C@@H](C)CO)C(=O)Cc2cc(NS(=O)(=O)c3cccs3)ccc2O[C@H]1CN(C)S(=O)(=O)c1cn(C)cn1 0.25%
Cc1cccc(C(=O)N/N=C/C(C)Cc2ccc3c(c2)OCO3)c1 (stereo not drawn) 4.82%
Cc1ccc(OC(=O)c2ccc3nc(C)sc3c2)cc1 4.61%
CCCCNC(=O)OCCNC(=O)Oc1cccc(C)c1 1.13%
O=C(COC(=O)C1(c2ccccc2F)CCCC1)Nc1ncc(C(F)(F)F)cc1Cl 4.26%
Cc1ccc(S(=O)(=O)N2[C@@H](c3ccc(Cl)c(Cl)c3)C(C(=O)O)=C[C@H]2C(C)(C)C)cc1 -4.2%
Cc1cc(OC(=O)N2CCOCC2)cc(C)c1Cl 3.85%
Cc1ccc(NN=Nc2nc3c([nH]2)c(=O)n(C)c(=O)n3C)cc1 -12.8%
COc1ccc(C)cc1NC(=O)CN(C)S(=O)(=O)c1ccc2c(c1)CC(C)N2C(C)=O (stereo not drawn) -1.46%
O=C(O)CCCNC(=O)c1cccc(C(=O)NCCCC(=O)O)n1 -1.04%
Cc1ccc(/C=N\NC(=O)c2cc([N+](=O)[O-])cc([N+](=O)[O-])c2)o1 -2.67%
Cc1noc(C)c1NC(=O)Nc1cccc2c1O[C@H](CN(C)C(=O)Nc1ccc3c(c1)OCO3)[C@@H](C)CN([C@H](C)CO)C2=O 3.31%
O=[N+]([O-])c1ccccc1N/N=C\c1ccccc1Cl -1.83%
COc1ccc(C)cc1-n1nnnc1SC/C(O)=C(\C#N)c1nc2ccccc2[nH]1 -2.92%
CCCS(=O)(=O)N1CCN(S(=O)(=O)c2ccccc2[N+](=O)[O-])CC1 -4%
Cc1csc(SCC(=O)Nc2ccccc2C)n1 -3.18%
O=c1[nH]cnc2c1c(-c1ccccc1)cn2-c1ccccc1 -0.667%
Cc1ccc(C)c(S(=O)(=O)Nc2cc(SCC(=O)O)c(O)c3ccccc23)c1 2.64%
COc1ccc(N=Cc2cccc(C)c2O)cc1Cl -3.87%
Cn1nc(NC(=O)C(C)(C)C)c2c(F)cccc21 -2.53%
O=C1CC(N2CCC(O)(c3ccc(Cl)cc3)CC2)C(=O)N1Cc1ccc(N2CCCC2=O)cc1 (stereo not drawn) 1.09%
CN(C)CCOc1ccc(-c2c(-c3ccccc3)sc3ccccc23)cc1 1.07%
Cc1cc(C)c2cc(C#N)c(SCC(=O)Nc3ccc4c(c3)OCO4)nc2c1 -11.4%
O=C(NCc1nnc(SCC(=O)N2CCCCC2)o1)c1c(F)cccc1F 0.925%
Nc1cc(OC(=O)c2ccccc2Br)nn1S(=O)(=O)c1ccccc1 -1.6%
CN(CCCNC(=O)CSc1cc(=O)n(C)c2ccc(Cl)cc12)Cc1ccccc1 1.02%
CCn1c(SCC(=O)NCc2ccco2)nnc1-c1cccs1 2.79%
Cc1ccc(NC(=O)COC(=O)c2ccco2)cc1S(=O)(=O)N1CCOCC1 -1.17%
C=CCNC(=S)NNC(=O)COc1cccc(Cl)c1 -1.84%
O=C(Nc1cccc(Cl)c1)NC1CCN(C2CCCCC2)C1 (stereo not drawn) 0.254%
NC(=O)COc1cccc2cccnc12 8.35%
CC(C)NC(=O)Nc1cccc2c1O[C@H](CN(C)C(=O)NC1CCCCC1)[C@H](C)CN([C@H](C)CO)C2=O -2.85%
COc1ccc(CCNC(=O)c2ccc3c(c2)NC(=O)C(N2CCOCC2)S3)cc1OC (stereo not drawn) 10.6%
COc1cc(S(=O)(=O)N(Cc2cccs2)CC2CCCO2)ccc1-n1cnnn1 (stereo not drawn) 0.517%
CC(=O)C(Sc1nc(N2CCOCC2)nc(N2CCOCC2)n1)C(=O)Nc1ccccc1 (stereo not drawn) -2.12%
COc1ccc(OCC(=O)N2CCC3(CC2)CC(=O)c2ccccc2O3)cc1 -2.29%
COc1ccc(CNC(=O)CSc2nnnn2Cc2ccccc2)cc1 1.37%
Clc1cccc(Cl)c1Cn1c(-c2cccnc2Cl)nc2ccccc21 3.42%
O=C(NC(=S)Nc1ccccn1)c1ccc([N+](=O)[O-])cc1 2.6%
Cc1nnc2c(N3CCN(C(=O)c4ccco4)CC3)nc3ccccc3n12 5.77%
O=C(O)c1ccc2cc(-c3ccccc3)[nH]c2c1 1.97%
CCCN(CC(=O)Nc1ccccc1C)C(=O)CCl 2.09%
COc1ccc(-c2cc(C(F)(F)F)nc(SCCC(=O)NCc3ccco3)n2)cc1 -5.24%
NS(=O)(=O)c1ccc(CCNC(=O)CSc2ccccc2)cc1 -0.881%
COc1cc(/C=N/N2C(=O)C3C4c5ccccc5C(c5ccccc54)C3C2=O)ccc1O (stereo not drawn) -0.966%
O=C(O)COc1ccc(NC(=O)C(c2ccccc2)c2ccccc2)cc1 3.86%
O=C(c1oc(=O)c2ccccc2c1-c1ccccc1)N1CCOCC1 5.89%
CCCCCNc1nc(-c2ccccc2)nc(-n2ccnc2)n1 3.2%

Sorted by length of the SMILES (descending): some entries from above
Activity change, negative = inhibition, inactive:
Cc1ccc(/C=N\NC(=O)c2cc([N+](=O)[O-])cc([N+](=O)[O-])c2)o1 -2.67%
O=[N+]([O-])c1ccccc1S(=O)(=O)N1CCN(Cc2ccc3c(c2)OCO3)CC1 -0.819%
NC(=O)COc1cccc2cccnc12 8.35%

Random excerpt: three compounds from above
Activity change, negative = inhibition, inactive:
Cc1ccc(NC(=O)COC(=O)c2ccco2)cc1S(=O)(=O)N1CCOCC1 -1.17%
Cc1noc(C)c1NC(=O)Nc1cccc2c1O[C@H](CN(C)C(=O)Nc1ccc3c(c1)OCO3)[C@@H](C)CN([C@H](C)CO)C2=O 3.31%
O=C(Cc1sc(-c2ccccc2)nc1-c1ccccc1)Nc1ccccc1 4.26%
